Reference: PMC4570275
No constants are given. Whether binding was seen depends on the method and setting. Binding seen in cells or lysates may run through a third protein. Some binding calls cover weakened binding; strength is not graded here. For some of these results: Where a sequence is shown, tags or fusion partners need not be part of it.

Chains of the proteins cited; added tags and fusions are not shown. Residues count along the entry.
UniProt P25799, residues 1-431: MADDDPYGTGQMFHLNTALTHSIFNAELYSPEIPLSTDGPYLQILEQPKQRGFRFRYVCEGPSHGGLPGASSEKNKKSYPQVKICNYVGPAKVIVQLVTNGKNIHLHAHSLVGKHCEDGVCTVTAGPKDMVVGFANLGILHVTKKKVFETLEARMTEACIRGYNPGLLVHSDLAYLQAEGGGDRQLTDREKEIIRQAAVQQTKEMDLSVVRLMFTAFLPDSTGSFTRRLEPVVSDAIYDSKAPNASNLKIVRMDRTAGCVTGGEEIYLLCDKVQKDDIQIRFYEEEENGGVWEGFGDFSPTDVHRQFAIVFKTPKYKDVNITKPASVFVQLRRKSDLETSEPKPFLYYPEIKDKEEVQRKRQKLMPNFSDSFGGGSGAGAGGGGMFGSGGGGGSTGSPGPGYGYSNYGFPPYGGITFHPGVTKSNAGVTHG
UniProt P70288: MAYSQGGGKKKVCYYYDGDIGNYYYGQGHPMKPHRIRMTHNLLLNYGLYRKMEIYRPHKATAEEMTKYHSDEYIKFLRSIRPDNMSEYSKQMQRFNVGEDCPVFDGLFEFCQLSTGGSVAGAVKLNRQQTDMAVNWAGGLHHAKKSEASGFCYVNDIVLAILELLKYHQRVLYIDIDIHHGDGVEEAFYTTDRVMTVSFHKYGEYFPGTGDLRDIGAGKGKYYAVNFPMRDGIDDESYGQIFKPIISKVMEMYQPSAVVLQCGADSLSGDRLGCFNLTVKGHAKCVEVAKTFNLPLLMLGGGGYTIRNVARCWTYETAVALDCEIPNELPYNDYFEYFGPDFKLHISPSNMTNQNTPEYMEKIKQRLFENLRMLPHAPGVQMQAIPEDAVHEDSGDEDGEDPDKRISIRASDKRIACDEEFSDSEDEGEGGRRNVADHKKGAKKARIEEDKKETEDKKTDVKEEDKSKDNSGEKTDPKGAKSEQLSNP
UniProt O09106: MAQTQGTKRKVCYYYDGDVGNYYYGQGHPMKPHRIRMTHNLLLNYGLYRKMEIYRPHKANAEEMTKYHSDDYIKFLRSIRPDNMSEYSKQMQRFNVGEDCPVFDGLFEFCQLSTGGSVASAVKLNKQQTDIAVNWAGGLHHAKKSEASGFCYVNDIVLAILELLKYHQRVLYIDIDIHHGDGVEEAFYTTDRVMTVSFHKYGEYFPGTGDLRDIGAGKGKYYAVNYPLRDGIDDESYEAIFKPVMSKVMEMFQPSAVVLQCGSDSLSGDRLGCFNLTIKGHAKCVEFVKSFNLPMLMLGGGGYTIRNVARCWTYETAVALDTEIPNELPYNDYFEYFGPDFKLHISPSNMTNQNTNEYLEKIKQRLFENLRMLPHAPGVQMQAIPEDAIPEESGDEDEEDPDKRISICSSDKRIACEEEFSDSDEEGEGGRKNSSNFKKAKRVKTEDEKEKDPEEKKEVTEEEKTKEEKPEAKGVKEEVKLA
UniProt Q8BKJ9: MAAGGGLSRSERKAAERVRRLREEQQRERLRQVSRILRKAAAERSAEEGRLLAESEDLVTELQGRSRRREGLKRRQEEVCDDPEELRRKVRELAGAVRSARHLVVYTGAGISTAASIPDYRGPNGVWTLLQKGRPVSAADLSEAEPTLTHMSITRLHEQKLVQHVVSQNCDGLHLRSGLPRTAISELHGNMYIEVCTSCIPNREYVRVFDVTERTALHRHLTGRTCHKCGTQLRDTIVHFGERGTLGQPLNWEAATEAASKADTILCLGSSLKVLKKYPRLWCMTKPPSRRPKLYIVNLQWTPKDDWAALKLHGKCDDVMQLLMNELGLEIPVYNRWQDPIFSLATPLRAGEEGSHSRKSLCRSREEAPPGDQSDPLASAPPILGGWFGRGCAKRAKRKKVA

Legend:
[1] = target: T1, Flag-tagged Foxp3 (mouse) (UniProt Q99JB6); assay: co-IP; lysate of mouse CD4+ T cells transduced with FLAG-Foxp3 retrovirus, iTreg-culturing conditions with GITR costimulation, 48 h; anti-FLAG (F1804) or normal mouse IgG, Protein G agarose; immunoblot with anti-HDAC1, anti-HDAC2, anti-Sirt1 and anti-Sirt7
T1 sequence: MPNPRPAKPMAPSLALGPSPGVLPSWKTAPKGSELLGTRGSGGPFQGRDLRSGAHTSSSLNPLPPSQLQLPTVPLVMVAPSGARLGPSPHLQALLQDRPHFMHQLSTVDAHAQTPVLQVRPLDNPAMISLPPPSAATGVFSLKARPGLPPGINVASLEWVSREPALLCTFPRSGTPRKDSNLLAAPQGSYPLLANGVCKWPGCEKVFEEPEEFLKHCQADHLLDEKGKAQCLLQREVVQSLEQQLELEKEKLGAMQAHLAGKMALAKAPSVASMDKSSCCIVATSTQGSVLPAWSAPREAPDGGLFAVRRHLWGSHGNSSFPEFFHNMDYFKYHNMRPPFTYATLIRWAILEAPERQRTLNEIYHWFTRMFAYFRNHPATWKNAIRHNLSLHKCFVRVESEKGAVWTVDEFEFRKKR

[2] = target: NF-κB family member p50 (mouse (endogenous in CD4+ T cells of C57BL/6 mice)) (UniProt P25799); assay: co-IP; lysate (IP lysis buffer) of mouse naive CD4+ T cells activated under iTreg-polarizing conditions (TGF-β plus IL-2) with GITR costimulation (DTA-1); anti-p50 (sc-1192) or control goat IgG at 4 °C overnight, Protein G agarose, four washes; immunoblot of the precipitates

Substance	binding [1]	binding [2]
HDAC2 (from UniProt P70288 1-488) (enzyme)	binds	
HDAC1 (from UniProt O09106 1-482) (enzyme)	binds	binds
Sirt7 (from UniProt Q8BKJ9 1-402) (enzyme)	binds	
